Experimental data as given in paper PMC8270965.
These are yes or no findings as the source states them, for the method shown. In cells and extracts the contact can be indirect. Here binding means that the protein was enriched with, or labelled near, the bait; the list need not be complete.

The chains behind the UniProt entries cited, without tags or fusion partners.
UniProt Q9QUJ7: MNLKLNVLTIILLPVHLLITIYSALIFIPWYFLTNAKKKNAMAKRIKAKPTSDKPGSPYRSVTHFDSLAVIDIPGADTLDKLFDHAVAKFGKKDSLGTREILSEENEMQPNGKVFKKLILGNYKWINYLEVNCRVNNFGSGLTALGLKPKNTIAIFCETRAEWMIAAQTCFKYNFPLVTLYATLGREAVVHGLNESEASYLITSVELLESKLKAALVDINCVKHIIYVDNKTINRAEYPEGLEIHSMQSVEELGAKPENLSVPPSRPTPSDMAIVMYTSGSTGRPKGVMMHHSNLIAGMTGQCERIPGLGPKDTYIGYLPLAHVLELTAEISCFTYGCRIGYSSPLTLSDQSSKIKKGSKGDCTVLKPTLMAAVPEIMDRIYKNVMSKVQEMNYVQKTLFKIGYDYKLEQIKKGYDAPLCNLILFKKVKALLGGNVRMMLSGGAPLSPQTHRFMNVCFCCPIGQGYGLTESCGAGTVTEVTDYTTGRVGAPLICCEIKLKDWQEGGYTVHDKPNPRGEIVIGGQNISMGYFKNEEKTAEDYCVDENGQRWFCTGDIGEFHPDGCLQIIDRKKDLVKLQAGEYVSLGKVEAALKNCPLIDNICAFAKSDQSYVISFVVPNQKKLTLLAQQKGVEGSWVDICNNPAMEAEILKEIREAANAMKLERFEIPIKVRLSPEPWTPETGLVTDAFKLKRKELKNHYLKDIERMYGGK

Target: long-chain-fatty-acid-CoA ligase 4 (Acsl4) (mouse (endogenous in primary cortical neurons)) (UniProt Q9QUJ7)
Assay: affinity purification with mass spectrometry; IP of primary cortical neuron lysates with Acsl4 antibody, gel with silver staining, LC-MS of gel strips

B1: F-box only protein 10 (Fbxo10) (protein, UniProt Q7TQF2 1-950)
chain: METGGLPLELWRMILAYLHLPDLGRCSLVCRAWYELILSLDSTRWRQLCLGCTECRHPNWPNQPDVEPESWREAFKQHYLASKTWTKNALDLESSICFSLFRRKKERRTLSVGPGHEFDSLGSALAMASLYDRIVLFPGVYEEQGEIILKVPVEIVGQGKLGEVALLASIDQHCSTTRVCNLVFMPAWFSPIMYKTTSGHIQFDNCNFENGHIQVHGPGTCQVKFCTFKNTHVFLHNVPLCMLENCEFVGSENNCVTVEGHPSADKNWAYKYLLGLIKSSPIFLPAEDHDFLMSLDLESRDQAWSPRTCDIVIEGSQSPTSPVCSSPKPGSKEAEVGSDGERVAQTPDSSDGGLSPSGEDEDDEQLTYRLSYQVQGPRPVLGGSFLGPPLPGASIQLPSCLVLNSLHQELQKDKEAMALASSVQGCLIRKCLFRDGKGGVFVCSYGRAKMEGNVFRNLTYAVRCIHNSKIVMLRNDIYRCRASGIFLRLEGGGLIAGNNIYHNAEAGVDIRKKSNPLILCNQIHHGLRSGIVVLGNGKGVIRNNQIFSNKEAGIYILYHGNPIVSGNHIFKGRAAGIAVNENGKGLITENVIRENQWGGVDIRRGGVPILRSNLICFGYSDGVVVGDEGKGLIEGNTIYANKGCGVWMMSSSLPHVTSNHVSYNGLYGVAVFSQKDGEFPGGHGAQENFSEDGDAILWEAELEKEDDPLRRPITVALVESNSINHNGASGIFVQSSEALQVVANVIHANGDRGITIVQSSQLTRVANNSISCNRQSGVKVEFQCKVELRGNGIYDNRGHGIITKGDGTAVVENDIIGNRGSGLQLLPRSDTKVLKNRIHSFRAYGIAVRGRVKALVQENIIFQGKTNKTIFQQITNNRECIMQNNKFLVFKKKSDTWRLVNPPARPHLENSLRGSSAAHSGHKVTAMATRITARVEGGYHSNRSIFCTIL
With B1 the binding was “binds”.
